Results as given in patent US6407214 (CELLTECH THERAPEUTICS, dated 2002).
These are yes or no findings as the source states them, for the method shown. Some results given as binding are weak or reduced against the parent protein; the word gives no strength.

Target: T1, Lectin/EGF fragment from E-selectin (UniProt P16581 22-178, limits assumed)
T1 construct: domain: Lectin/EGF fragment; Soluble fragment; also called lectin/EGF fragment of E-selectin
T1 sequence (looked up): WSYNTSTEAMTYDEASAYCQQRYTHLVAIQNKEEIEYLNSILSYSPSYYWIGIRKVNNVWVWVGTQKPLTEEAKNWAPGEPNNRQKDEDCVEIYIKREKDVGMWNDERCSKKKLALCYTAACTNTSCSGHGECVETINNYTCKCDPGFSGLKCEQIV
Experiment: competition ELISA on captured lectin/EGF fragment; competitor biotinylated murine ENA-2

B1: mouse ENA-2 (antibody, V domains shown)
VH: QVQLQQSGTELVRPGASVTLSCKASGYTFTDHEMHWVKQTPVLGLEWIGTIDPETGGTAYNQKFKGKATLTADKSSTTAYMDLRGLTSEDSAVFYCTVLRMDYWGQGTSLTVSA
VL: DIVMTQSPSSLTVTAGEKVTMRCKSSQSLLNSGNQQNYLTWYQQKPGQPPKLLIYWASTRESGVPDRFTGSGSGTDFTLTISSVQTEDLAVYYCQNDYDYPLTFGAGTKLEIKR
notes: Mouse IgG1/kappa whole antibody purified from hybridoma supernatant; The entries may include leader residues; also called mENA-2; murine ENA-2
In the case of B1, the binding is reported as “binds”.
